Data from publication PMC6370856, “Peptidyl prolyl cis/trans isomerase activity on the cell surface correlates with extracellular matrix development” (Communications Biology, 2019).

Test system: collagen hydrogel (Type I, rat-tail)
Assay: Step-strain rheological measurement, self-healing of collagen hydrogel
Conditions: 9 micromolar CypA
Procedure: Another important feature of the dynamic ECMs is their self-healing property, which can be tested using a step-strain rheological measurement. A strong strain is applied to liquify the materials, and the recovery of storage modulus is followed (self-healing) (Fig. 1b). Collagen hydrogel can only partially recover its storage modulus after the first cycle. The rate and extent of recovery were unchanged over the following cycles.
To minimize sample evaporation at 37 °C, a tissue paper wet in HEPEs buffer (10 mM, pH 7.8) was placed inside the H-PTD chamber to increase the humidity. […] The cone and plate were treated with plasma for 5 min to increase the hydrophilicity of the metal surface.

In the case of “CypA: recombinant cyclophilin A, a PPIase, expressed in E. coli”, the “Storage Modulus, Mean” value (Time 72.33 min) is reported as 5.731 Pa, the “Storage Modulus, Mean” value (Time 72.83 min) is reported as 5.662 Pa and the “Storage Modulus, Mean” value (Time 73.33 min) is reported as 5.397 Pa. The “Storage Modulus, Mean” value (Time 73.83 min) was 5.502 Pa, the “Storage Modulus, Mean” value (Time 74.33 min) was 6.029 Pa and the “Storage Modulus, Mean” value (Time 74.83 min) was 5.5133 Pa. For the same substance, the “Storage Modulus, Mean” value (Time 75.33 min) was 5.709 Pa, the “Storage Modulus, Mean” value (Time 75.83 min) was 5.4702 Pa and the “Storage Modulus, Mean” value (Time 76.33 min) was 5.469 Pa. For the same substance, the “Storage Modulus, Mean” value (Time 76.83 min) was 5.814 Pa, the “Storage Modulus, Mean” value (Time 77.33 min) was 5.604 Pa and the “Storage Modulus, Mean” value (Time 77.83 min) was 6.148 Pa. The “Storage Modulus, Mean” value (Time 78.33 min) was 6.016 Pa, the “Storage Modulus, Mean” value (Time 78.83 min) was 5.471 Pa and the “Storage Modulus, Mean” value (Time 79.33 min) was 5.868 Pa. The “Storage Modulus, Mean” value (Time 79.83 min) was 5.184 Pa, the “Storage Modulus, Mean” value (Time 80.33 min) was 5.805 Pa and the “Storage Modulus, Mean” value (Time 80.83 min) was 5.927 Pa. The “Storage Modulus, Mean” value (Time 81.33 min) was 5.574 Pa, the “Storage Modulus, Mean” value (Time 81.83 min) was 5.824 Pa and the “Storage Modulus, Mean” value (Time 82.33 min) was 5.448 Pa. The “Storage Modulus, Mean” value (Time 82.83 min) was 5.786 Pa, the “Storage Modulus, Mean” value (Time 83.33 min) was 6.517 Pa and the “Storage Modulus, Mean” value (Time 83.83 min) was 6.291 Pa. For the same substance, the “Storage Modulus, Mean” value (Time 84.33 min) was 6.291 Pa, the “Storage Modulus, Mean” value (Time 84.83 min) was 6.753 Pa and the “Storage Modulus, Mean” value (Time 85.33 min) was 6.207 Pa. The “Storage Modulus, Mean” value (Time 85.83 min) was 6.301 Pa, the “Storage Modulus, Mean” value (Time 86.33 min) was 5.551 Pa and the “Storage Modulus, Mean” value (Time 86.83 min) was 5.784 Pa. For the same substance, the “Storage Modulus, Mean” value (Time 87.33 min) was 6.331 Pa, the “Storage Modulus, Mean” value (Time 87.83 min) was 5.95 Pa and the “Storage Modulus, Mean” value (Time 88.33 min) was 6.316 Pa. For the same substance, the “Storage Modulus, Mean” value (Time 88.83 min) was 6.454 Pa, the “Storage Modulus, Mean” value (Time 89.33 min) was 6.511 Pa and the “Storage Modulus, Mean” value (Time 89.83 min) was 6.248 Pa. The “Storage Modulus, Mean” value (Time 90.33 min) was 6.728 Pa, the “Storage Modulus, Mean” value (Time 90.83 min) was 6.803 Pa and the “Storage Modulus, Mean” value (Time 91.33 min) was 6.7746 Pa. The “Storage Modulus, Mean” value (Time 91.83 min) was 6.465 Pa, the “Storage Modulus, Mean” value (Time 92.33 min) was 6.684 Pa and the “Storage Modulus, Mean” value (Time 92.83 min) was 6.241 Pa. For the same substance, the “Storage Modulus, Mean” value (Time 93.33 min) was 6.678 Pa, the “Storage Modulus, Mean” value (Time 93.5 min) was 1.043 Pa and the “Storage Modulus, Mean” value (Time 93.67 min) was 0.9944 Pa. The “Storage Modulus, Mean” value (Time 93.83 min) was 0.9371 Pa, the “Storage Modulus, Mean” value (Time 94 min) was 0.9099 Pa and the “Storage Modulus, Mean” value (Time 94.17 min) was 0.888 Pa. For the same substance, the “Storage Modulus, Mean” value (Time 94.33 min) was 0.869 Pa, the “Storage Modulus, Mean” value (Time 94.5 min) was 0.8565 Pa and the “Storage Modulus, Mean” value (Time 94.67 min) was 0.8445 Pa. For the same substance, the “Storage Modulus, Mean” value (Time 94.83 min) was 0.8347 Pa, the “Storage Modulus, Mean” value (Time 95 min) was 0.8256 Pa and the “Storage Modulus, Mean” value (Time 95.5 min) was 3.371 Pa. For the same substance, the “Storage Modulus, Mean” value (Time 96 min) was 4.81 Pa, the “Storage Modulus, Mean” value (Time 96.5 min) was 4.105 Pa and the “Storage Modulus, Mean” value (Time 97 min) was 4.77 Pa. The “Storage Modulus, Mean” value (Time 97.5 min) was 4.5639 Pa, the “Storage Modulus, Mean” value (Time 98 min) was 4.981 Pa and the “Storage Modulus, Mean” value (Time 98.5 min) was 4.9588 Pa. For the same substance, the “Storage Modulus, Mean” value (Time 99 min) was 4.955 Pa, the “Storage Modulus, Mean” value (Time 100 min) was 5.139 Pa and the “Storage Modulus, Mean” value (Time 100.5 min) was 4.946 Pa. The “Storage Modulus, Mean” value (Time 101.5 min) was 5.717 Pa, the “Storage Modulus, Mean” value (Time 102.5 min) was 5.485 Pa and the “Storage Modulus, Mean” value (Time 109.5 min) was 4.645 Pa. For the same substance, the “Storage Modulus, Mean” value (Time 110 min) was 6.2533 Pa, the “Storage Modulus, Mean” value (Time 110.5 min) was 6.02 Pa and the “Storage Modulus, Mean” value (Time 111.5 min) was 6.493 Pa. For the same substance, the “Storage Modulus, Mean” value (Time 112.5 min) was 6.728 Pa, the “Storage Modulus, Mean” value (Time 113.5 min) was 7.172 Pa and the “Storage Modulus, Mean” value (Time 114 min) was 6.039 Pa. The “Storage Modulus, Mean” value (Time 114.5 min) was 6.304 Pa and the “Storage Modulus, Mean” value (Time 118.5 min) was 6.899 Pa.
